No constants are given. Whether binding was seen depends on the method and setting. For some assays here: In cells and extracts the contact can be indirect. Some results given as binding are weak or reduced against the parent protein; the word gives no strength. Where a sequence is shown, tags or fusion partners need not be part of it.

In experiment [1] the target is DPP9, short isoform (His-TEV-DPP9), co-expressed with NLRP1ΔΔ for cryo-EM (human), Q86TI2. The experiment in a line: cryo-EM structure. The note with it: remark: other sources report otherwise.
For experiment [2], the target named is T1, FLAG-tagged full-length NLRP1 S1213A (autoproteolysis-deficient) (human) (UniProt Q9C000).
T1 sequence: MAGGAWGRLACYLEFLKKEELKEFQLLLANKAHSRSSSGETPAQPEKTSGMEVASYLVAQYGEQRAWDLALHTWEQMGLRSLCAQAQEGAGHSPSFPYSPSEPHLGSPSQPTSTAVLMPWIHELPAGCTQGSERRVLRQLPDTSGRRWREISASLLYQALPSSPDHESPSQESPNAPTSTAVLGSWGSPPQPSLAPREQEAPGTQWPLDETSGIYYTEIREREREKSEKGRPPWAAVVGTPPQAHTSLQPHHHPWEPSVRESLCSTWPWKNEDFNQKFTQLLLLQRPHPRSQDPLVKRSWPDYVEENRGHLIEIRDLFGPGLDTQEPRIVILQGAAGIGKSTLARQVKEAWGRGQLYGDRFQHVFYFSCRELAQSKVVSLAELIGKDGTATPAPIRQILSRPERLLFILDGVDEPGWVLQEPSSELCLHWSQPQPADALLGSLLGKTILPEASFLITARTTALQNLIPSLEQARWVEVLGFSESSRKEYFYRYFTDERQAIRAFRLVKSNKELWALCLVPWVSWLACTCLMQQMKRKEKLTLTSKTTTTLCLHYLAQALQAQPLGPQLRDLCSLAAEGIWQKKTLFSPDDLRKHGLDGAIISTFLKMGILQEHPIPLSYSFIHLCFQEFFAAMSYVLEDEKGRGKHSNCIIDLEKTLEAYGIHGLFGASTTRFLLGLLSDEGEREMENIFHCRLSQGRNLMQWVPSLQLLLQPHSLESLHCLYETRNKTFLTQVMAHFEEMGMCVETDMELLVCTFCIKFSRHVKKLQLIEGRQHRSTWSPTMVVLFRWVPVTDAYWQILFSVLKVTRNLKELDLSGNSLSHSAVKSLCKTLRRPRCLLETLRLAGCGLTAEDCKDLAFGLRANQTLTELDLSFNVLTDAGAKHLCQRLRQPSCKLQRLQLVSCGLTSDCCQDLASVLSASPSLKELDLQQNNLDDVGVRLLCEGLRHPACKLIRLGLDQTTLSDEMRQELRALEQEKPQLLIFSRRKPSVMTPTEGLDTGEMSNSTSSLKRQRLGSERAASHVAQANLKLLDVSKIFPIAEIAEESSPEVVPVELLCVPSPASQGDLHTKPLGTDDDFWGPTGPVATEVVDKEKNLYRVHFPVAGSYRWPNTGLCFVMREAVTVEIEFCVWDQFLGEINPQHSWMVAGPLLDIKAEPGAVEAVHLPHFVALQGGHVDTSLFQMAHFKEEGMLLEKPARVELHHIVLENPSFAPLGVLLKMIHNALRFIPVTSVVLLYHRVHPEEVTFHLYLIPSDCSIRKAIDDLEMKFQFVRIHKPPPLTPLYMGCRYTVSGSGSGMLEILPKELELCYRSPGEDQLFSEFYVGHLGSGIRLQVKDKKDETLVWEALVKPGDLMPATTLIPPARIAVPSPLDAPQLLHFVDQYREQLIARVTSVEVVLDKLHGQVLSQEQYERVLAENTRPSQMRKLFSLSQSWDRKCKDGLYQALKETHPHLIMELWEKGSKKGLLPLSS
The experiment in a line: co-IP.

B1: DPP9, short isoform (His-TEV-DPP9), co-expressed with NLRP1ΔΔ for cryo-EM, Q86TI2-1 1-863 (enzyme)
chain: MATTGTPTADRGDAAATDDPAARFQVQKHSWDGLRSIIHGSRKYSGLIVNKAPHDFQFVQKTDESGPHSHRLYYLGMPYGSRENSLLYSEIPKKVRKEALLLLSWKQMLDHFQATPHHGVYSREEELLRERKRLGVFGITSYDFHSESGLFLFQASNSLFHCRDGGKNGFMVSPMKPLEIKTQCSGPRMDPKICPADPAFFSFINNSDLWVANIETGEERRLTFCHQGLSNVLDDPKSAGVATFVIQEEFDRFTGYWWCPTASWEGSEGLKTLRILYEEVDESEVEVIHVPSPALEERKTDSYRYPRTGSKNPKIALKLAEFQTDSQGKIVSTQEKELVQPFSSLFPKVEYIARAGWTRDGKYAWAMFLDRPQQWLQLVLLPPALFIPSTENEEQRLASARAVPRNVQPYVVYEEVTNVWINVHDIFYPFPQSEGEDELCFLRANECKTGFCHLYKVTAVLKSQGYDWSEPFSPGEDEFKCPIKEEIALTSGEWEVLARHGSKIWVNEETKLVYFQGTKDTPLEHHLYVVSYEAAGEIVRLTTPGFSHSCSMSQNFDMFVSHYSSVSTPPCVHVYKLSGPDDDPLHKQPRFWASMMEAASCPPDYVPPEIFHFHTRSDVRLYGMIYKPHALQPGKKHPTVLFVYGGPQVQLVNNSFKGIKYLRLNTLASLGYAVVVIDGRGSCQRGLRFEGALKNQMGQVEIEDQVEGLQFVAEKYGFIDLSRVAIHGWSYGGFLSLMGLIHKPQVFKVAIAGAPVTVWMAYDTGYTERYMDVPENNQHGYEAGSVALHVEKLPNEPNRLLILHGFLDENVHFFHTNFLVSQLIRAGKPYQLQIYPNERHSIRCPESGEHYEVTLLHFLQEYL
Regarding B1, in experiment [1], the binding result is “binds”.

B2: NLRP1-CT (S1213-S1473) expressed as an N-terminal ubiquitin fusion (Ub-NLRP1-CT), V5-tagged (domain or fragment, UniProt Q9C000-1 1213-1473)
chain: SPLGVLLKMIHNALRFIPVTSVVLLYHRVHPEEVTFHLYLIPSDCSIRKAIDDLEMKFQFVRIHKPPPLTPLYMGCRYTVSGSGSGMLEILPKELELCYRSPGEDQLFSEFYVGHLGSGIRLQVKDKKDETLVWEALVKPGDLMPATTLIPPARIAVPSPLDAPQLLHFVDQYREQLIARVTSVEVVLDKLHGQVLSQEQYERVLAENTRPSQMRKLFSLSQSWDRKCKDGLYQALKETHPHLIMELWEKGSKKGLLPLSS
As for B2, in experiment [2], the binding entry is “binds”.

For the origin of these results see paper doi:10.1101/2020.08.14.246132.
